One assay concerns the target CD3 on Jurkat cells (UniProt P04234). Briefly: flow cytometry on Jurkat cells. (A flow cytometer gives signals particle by particle.)
The target in assay [1] is BCMA-his protein (Cat #: BCA-H522y, ACRO) (human) (UniProt Q02223). Put plainly: SPR (BIAcore 8K). (In general: Surface plasmon resonance follows binding to a sensor surface in real time, without labels.)
The target is the same in assay [2]. Briefly: ELISA, coated BCMA protein.

Chains of the proteins cited; added tags and fusions are not shown. Lines headed by an entry give the natural chain unless they say otherwise; changes in a name come on top.
UniProt P04234: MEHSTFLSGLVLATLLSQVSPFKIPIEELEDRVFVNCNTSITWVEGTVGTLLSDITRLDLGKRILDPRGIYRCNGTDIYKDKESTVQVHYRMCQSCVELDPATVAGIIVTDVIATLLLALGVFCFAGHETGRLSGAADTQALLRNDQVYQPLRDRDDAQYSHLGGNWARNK
UniProt Q02223: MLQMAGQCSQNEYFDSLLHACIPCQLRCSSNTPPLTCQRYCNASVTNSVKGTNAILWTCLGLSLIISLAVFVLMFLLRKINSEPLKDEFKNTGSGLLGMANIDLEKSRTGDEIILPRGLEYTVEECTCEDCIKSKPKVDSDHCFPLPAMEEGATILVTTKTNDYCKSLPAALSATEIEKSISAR

Changes are numbered by the printed parent chain. In names and notes the source's numbering stands. Results are given in words; binding and its absence hold for the method and conditions named. Some binding calls cover weakened binding; strength is not graded here.

B1: anti-CD3D&E antibody D1E9, full-length human IgG1 (L234A/L235A/N297A)/kappa (antibody, V domains shown)
VH: EVQLVESGGGLVQPGRSLRLSCAASGFTFDDFAMHWVRQAPGKGLEWVSGITWNSGSVGYADSVKGRFTISRDNAKKSLYLQMNSLRAEDTALYYCAKDRSGYGHYYYGMDVWGQGTTVTVAS
VL: EIVMTQSPATLSVSPGERATLSCRASTSVSHNVAWYQQKPGQAPRLLIYGASTKVTGIPARFSGSGSGTEFTLTISSLQSEDFAVYYCQHYINWPLTFGGGTKVEIKR
B1: the binding result with CD3 on Jurkat cells is “binds”.

B2: anti-CD3D&E antibody D12A4, full-length human IgG1 (L234A/L235A/N297A)/kappa (antibody, V domains shown)
VH: B1 VH with D30G, F32Y, T52S, S55H, S57H, V58I, R100N
VL: B1 VL with T27R, H31R, V33L, V55P, I92T, T97R
As for B2, in the assay with CD3 on Jurkat cells, the binding result was “binds”.

B3: anti-BCMA antibody A6-3, full-length human IgG1/kappa (antibody, V domains shown)
VH: QVQLVQSGAEVKKPGASVKVSCKASGYTFTNHIIHWVRQAPGQGLEWMGYINPYPGYHGYNDKFSGRATMTSDTSTSTVYMELSSLRSEDTAVYYCARDGYYRDQDVLDYWGQGTLVTVSS
VL: DIQMTQSPSSLSASVGDRVTITCKASQDISQYLNWYQQKPGKAPKLLIYYTSGLHPGVPSRFSGSGSGTDFTFTISSLEPEDIATYYCQQGYALPWTFGQGTKVEIKR
For B3, the binding entry in assay [1] and in assay [2] was “binds” throughout.
